# Data from paper PMC7705756.
# By UniProt entry, the sequences of proteins in these tests, tags left out.
# UniProt P25440: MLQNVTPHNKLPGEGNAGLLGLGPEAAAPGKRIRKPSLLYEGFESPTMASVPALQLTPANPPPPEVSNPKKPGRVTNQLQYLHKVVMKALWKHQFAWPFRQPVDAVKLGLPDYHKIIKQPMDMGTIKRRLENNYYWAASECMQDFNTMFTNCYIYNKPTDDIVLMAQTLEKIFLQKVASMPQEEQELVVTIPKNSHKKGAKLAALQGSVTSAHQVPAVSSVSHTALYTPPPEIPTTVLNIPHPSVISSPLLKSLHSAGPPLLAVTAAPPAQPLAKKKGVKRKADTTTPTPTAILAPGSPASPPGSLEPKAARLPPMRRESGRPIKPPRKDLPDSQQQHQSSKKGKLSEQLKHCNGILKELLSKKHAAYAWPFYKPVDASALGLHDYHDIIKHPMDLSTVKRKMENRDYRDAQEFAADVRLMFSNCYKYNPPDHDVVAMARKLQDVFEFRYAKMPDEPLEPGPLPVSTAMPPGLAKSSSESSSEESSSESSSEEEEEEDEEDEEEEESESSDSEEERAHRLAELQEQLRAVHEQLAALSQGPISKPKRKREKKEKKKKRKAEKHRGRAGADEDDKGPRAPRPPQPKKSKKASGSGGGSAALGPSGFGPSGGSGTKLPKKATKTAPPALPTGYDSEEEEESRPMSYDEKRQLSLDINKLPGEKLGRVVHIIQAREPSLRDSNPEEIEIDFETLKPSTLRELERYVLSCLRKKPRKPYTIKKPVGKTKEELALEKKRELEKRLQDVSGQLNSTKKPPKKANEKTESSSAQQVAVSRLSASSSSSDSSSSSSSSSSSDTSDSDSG
# UniProt P51532: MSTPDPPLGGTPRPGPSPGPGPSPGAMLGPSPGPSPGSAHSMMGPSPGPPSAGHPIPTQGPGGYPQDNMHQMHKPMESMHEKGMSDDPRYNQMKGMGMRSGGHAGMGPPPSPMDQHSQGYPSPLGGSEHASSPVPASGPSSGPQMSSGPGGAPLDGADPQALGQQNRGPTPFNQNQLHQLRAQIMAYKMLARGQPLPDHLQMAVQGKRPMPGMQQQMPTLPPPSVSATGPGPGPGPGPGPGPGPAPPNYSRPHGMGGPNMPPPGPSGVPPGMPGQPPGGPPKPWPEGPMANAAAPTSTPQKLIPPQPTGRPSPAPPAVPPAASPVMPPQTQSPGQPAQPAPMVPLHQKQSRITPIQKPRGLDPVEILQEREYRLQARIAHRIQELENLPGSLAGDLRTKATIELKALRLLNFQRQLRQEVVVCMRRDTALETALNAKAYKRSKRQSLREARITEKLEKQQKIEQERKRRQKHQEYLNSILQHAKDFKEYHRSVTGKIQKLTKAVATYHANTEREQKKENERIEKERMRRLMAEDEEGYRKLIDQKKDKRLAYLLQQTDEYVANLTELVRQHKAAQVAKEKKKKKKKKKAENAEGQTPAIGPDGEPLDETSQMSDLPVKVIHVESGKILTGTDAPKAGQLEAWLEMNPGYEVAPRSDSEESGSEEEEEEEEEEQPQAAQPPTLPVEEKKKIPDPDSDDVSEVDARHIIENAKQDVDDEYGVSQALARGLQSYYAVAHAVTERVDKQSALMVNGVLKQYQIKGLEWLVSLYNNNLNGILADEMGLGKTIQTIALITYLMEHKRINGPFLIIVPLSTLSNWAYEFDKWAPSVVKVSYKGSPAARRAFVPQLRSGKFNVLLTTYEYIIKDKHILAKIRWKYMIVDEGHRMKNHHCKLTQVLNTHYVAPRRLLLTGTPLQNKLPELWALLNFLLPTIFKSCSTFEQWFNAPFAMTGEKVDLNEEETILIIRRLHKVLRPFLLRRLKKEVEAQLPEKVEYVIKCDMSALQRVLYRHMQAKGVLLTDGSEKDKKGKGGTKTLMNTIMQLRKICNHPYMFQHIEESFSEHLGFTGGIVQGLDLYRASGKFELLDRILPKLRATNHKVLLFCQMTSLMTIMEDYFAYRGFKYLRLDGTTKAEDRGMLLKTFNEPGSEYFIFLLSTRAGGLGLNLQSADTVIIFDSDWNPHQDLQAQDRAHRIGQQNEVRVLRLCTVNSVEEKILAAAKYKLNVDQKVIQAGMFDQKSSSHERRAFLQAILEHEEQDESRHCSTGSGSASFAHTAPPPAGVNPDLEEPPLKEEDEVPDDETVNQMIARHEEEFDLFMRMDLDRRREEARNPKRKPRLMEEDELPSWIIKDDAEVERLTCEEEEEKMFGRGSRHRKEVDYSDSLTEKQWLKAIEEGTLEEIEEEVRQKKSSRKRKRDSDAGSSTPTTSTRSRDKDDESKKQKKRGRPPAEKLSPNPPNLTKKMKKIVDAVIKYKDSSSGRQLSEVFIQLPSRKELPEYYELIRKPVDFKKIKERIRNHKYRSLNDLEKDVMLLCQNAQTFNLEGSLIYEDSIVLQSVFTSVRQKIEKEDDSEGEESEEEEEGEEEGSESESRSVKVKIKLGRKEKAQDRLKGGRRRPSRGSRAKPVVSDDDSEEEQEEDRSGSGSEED
# No constants are given. Whether binding was seen depends on the method and setting. For some of these results: Binding seen in cells or lysates may run through a third protein. Some entries that bind do so weakly or less than the wild type.
# T1: C-terminal end of USP24 (a.a. 2078-2620), yeast two-hybrid bait (human) (UniProt Q9UPU5)
# T1 sequence: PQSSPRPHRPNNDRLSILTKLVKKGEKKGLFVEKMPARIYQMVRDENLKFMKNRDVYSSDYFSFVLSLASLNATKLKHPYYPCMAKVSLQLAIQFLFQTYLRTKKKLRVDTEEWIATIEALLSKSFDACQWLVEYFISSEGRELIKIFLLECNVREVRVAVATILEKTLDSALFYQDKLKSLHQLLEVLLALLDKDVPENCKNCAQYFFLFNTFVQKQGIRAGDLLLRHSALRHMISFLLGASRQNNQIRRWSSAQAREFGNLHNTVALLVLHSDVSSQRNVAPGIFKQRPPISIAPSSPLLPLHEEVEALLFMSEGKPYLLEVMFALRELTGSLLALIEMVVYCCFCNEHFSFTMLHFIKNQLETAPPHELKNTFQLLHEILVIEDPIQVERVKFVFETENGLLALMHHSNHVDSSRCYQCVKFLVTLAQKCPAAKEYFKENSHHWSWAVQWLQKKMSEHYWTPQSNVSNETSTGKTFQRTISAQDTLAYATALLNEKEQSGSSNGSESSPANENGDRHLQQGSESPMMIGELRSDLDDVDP
# How the values were obtained:
# [1] = target: T1, C-terminal end of USP24 (a.a. 2078-2620), yeast two-hybrid bait (human); assay: two-hybrid; yeast two-hybrid screen with the C-terminal end of USP24 (a.a. 2078-2620) as bait; no methods given
# [2] = target: endogenous USP24 (mouse embryonic fibroblasts) (mouse (endogenous in MEFs)) (UniProt B1AY13); assay: co-IP; lysate of mouse embryonic fibroblasts (MEFs), co-IP of USP24 with BRD7 or HA-tagged proteins (Suppl. Fig. 3)
# [3] = target: endogenous USP24 (H1299 cells) (human (endogenous in H1299)) (UniProt Q9UPU5); assay: co-IP; H1299 cell lysate, IP with anti-USP24 (1:200, 4 °C, 12 h), protein G-Sepharose, Western blot with anti-BRD7 or anti-HA
binding [1],binding [2],binding [3],Molecule
binds,–,–,BRD2 (yeast two-hybrid prey) (from UniProt P25440 1-801)
–,binds,binds,HA-BRG1 (from UniProt P51532 1-1647)
–,binds,–,"endogenous BRD7 (mouse embryonic fibroblasts) (protein, UniProt O88665 1-651) MGKKHKKHKSDRHFYEEYVEKPLKLVLKVGGSEVTELSTGSSGHDSSLFEDRSDHDKHKDRKRKKRKKGEKQAPGEEKGRKRRRVKEDKKKRDRDRAENEVDRDLQCHVPIRLDLPPEKPLTSSLAKQEEVEQTPLQEALNQLMRQLQRKDPSAFFSFPVTDFIAPGYSMIIKHPMDFSTMKEKIKNNDYQSIEELKDNFKLMCTNAMIYNKPETIYYKAAKKLLHSGMKILSQERIQSLKQSIDFMSDLQKTRKQKERTDACQSGEDSGCWQREREDSGDAETQAFRSPAKDNKRKDKDVLEDKWRSSNSEREHEQIERVVQESGGKLTRRLANSQCEFERRKPDGTTTLGLLHPVDPIVGEPGYCPVRLGMTTGRLQSGVNTLQGFKEDKRNRVTPVLYLNYGPYSSYAPHYDSTFANISKDDSDLIYSTYGEDSDLPNNFSISEFLATCQDYPYVMADSLLDVLTKGGHSRSLQDLDMSSPEDEGQTRALDTAKEAEITQIEPTGRLESSSQDRLTALQAVTTFGAPAEVFDSEEAEVFQRKLDETTRLLRELQEAQNERLSTRPPPNMICLLGPSYREMYLAEQVTNNLKELTQQVTPGDVVSIHGVRKAMGISVPSPIVGNSFVDLTGECEEPKETSTAECGPDAS"
